{"source": "patent US20130065969A9", "about": "“Odour Compounds” (priority 2009, published 2013)", "assay": "Odour threshold by GC detection at the sniffing port (panel of 5 persons)", "conditions": "mean of individual thresholds of 5 panelists", "experimental": "For each compound the odour threshold value was determined by gas chromatograph (GC) detection. […] Each panelist (panel of 5 persons) smelled blind and pressed a button upon perceiving an odor. If the recorded time matched the retention time, the sample was further diluted. The last quantity detected at the correct retention time was the panelist's individual odor threshold. The final threshold value for a given test compound was obtained as the mean value of the individual threshold levels.\nFurther information of the technique described hereinabove may be found in N. Neuner-Jehle, F. Etzweiler. ‘Measuring of Odors’, in P. Müller. D. Lamparsky (Eds,). ‘Perfumes. Art, Science and Technology’, Elsevier Appl. Science Publ., London. 1991: pp. 153.", "note": "For at least one compound, name, drawing or mass did not settle the structure."}
{"smiles": "CC/C(=C\\C(C)C)C(C)OC(C)(C)COC(=O)C1CCC1", "note": "(stereo not shown) [Example 4, (3″E)-2′-(3″-Ethyl-5″-methylhex-3″-en-2″-yloxy)-2′-methylpropyl cyclobutanecarboxylate]", "values": [{"measurement": "Odour Threshold", "result": 0.63, "unit": "ng/L"}]}
